Here are results for three substances from patent US20060199195A1.

The chains behind the UniProt entries cited, without tags or fusion partners. Where a name states a change or a piece, a line headed by the entry shows the natural chain unless it says otherwise. A line that says so, or that is headed by a name, gives the form on record, which may keep a tag or linker. Residues count along the entry.
βII-spectrin residues 1716 to 1997 fused to the GAL4 activation domain (pGAD10Sp) (Q01082, residues 1716-1997): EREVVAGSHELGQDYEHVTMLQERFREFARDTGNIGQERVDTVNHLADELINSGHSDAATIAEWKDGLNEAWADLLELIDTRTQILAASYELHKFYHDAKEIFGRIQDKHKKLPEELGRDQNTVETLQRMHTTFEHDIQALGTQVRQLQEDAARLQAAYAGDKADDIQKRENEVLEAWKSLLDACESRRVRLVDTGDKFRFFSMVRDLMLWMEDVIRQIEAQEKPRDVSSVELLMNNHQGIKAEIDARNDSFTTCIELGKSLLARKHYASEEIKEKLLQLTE
maltose binding protein fused with βII-spectrin residues 1779-1992 (MBPSp) (Q01082, residues 1779-1992): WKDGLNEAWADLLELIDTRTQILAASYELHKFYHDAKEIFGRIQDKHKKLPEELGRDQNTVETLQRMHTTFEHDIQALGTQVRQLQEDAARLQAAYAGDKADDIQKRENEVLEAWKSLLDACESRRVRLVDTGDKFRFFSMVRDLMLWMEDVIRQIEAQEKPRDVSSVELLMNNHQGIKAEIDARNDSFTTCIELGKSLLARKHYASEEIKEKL
UniProt P35240: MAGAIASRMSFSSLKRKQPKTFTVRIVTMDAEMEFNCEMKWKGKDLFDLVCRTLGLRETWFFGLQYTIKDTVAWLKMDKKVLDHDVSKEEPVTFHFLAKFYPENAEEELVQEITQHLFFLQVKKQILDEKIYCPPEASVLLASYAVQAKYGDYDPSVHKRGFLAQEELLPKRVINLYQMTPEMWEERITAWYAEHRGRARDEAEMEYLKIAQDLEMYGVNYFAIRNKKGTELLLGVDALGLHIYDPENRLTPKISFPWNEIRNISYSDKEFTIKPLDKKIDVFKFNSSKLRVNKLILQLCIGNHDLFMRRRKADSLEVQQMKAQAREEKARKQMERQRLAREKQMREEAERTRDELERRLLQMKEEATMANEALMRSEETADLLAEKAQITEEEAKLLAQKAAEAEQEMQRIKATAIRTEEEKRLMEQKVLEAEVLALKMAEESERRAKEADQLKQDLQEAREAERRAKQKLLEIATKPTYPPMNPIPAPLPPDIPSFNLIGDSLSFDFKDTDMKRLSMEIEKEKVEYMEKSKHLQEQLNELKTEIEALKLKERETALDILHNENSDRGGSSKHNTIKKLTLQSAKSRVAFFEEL

No constants are given. Whether binding was seen depends on the method and setting. For part of these data: Binding seen in cells or lysates may run through a third protein. Some entries that bind do so weakly or less than the wild type.

For assay [1], the target named is βII-spectrin residues 1716 to 1997 fused to the GAL4 activation domain (pGAD10Sp) (human) (UniProt Q01082). The assay is described as follows: yeast two-hybrid, β-galactosidase.
Assay [2] deals with maltose binding protein fused with βII-spectrin residues 1779-1992 (MBPSp) (UniProt Q01082). The assay is described as follows: pull-down on MBPSp-saturated amylose resin, Western blot. Background: Immunoblotting shows a protein as a band on a membrane.
Assay [3] concerns the target βII-spectrin residues 1716 to 1997 fused to the GAL4 activation domain (pGAD10Sp) (human) (UniProt Q01082). Put plainly: yeast two-hybrid with deletion constructs.

Regarding “full-length schwannomin isoform 1 fused to the GAL4 binding domain (pGBT9NF2, residues 1-595) (from UniProt P35240 1-595)”, the binding entry in assay [1] was “binds”.

For the substance “glutathione-S-transferase fusion of the C-terminal domain of schwannomin isoform 1 (GSTNF2CL, schwannomin residues 469-595) (from UniProt P35240 469-595)”, in assay [2], the binding entry was “binds”. Regarding “schwannomin isoform 1 C-terminal construct, GAL4 binding domain fusion (pGBT9NF2CL, Δ1-468) (from UniProt P35240 469-595)”, the binding result in assay [3] is “binds”.
